Experimental findings from article PMC4029619 are described below.

This assay concerns the target T1, Orbit, Drosophila ortholog of the MT plus-end tracking protein CLASP (endogenous, detected with anti-Orbit antibody) (Drosophila (endogenous in spermatocytes)) (UniProt Q9NBD7).
T1 sequence: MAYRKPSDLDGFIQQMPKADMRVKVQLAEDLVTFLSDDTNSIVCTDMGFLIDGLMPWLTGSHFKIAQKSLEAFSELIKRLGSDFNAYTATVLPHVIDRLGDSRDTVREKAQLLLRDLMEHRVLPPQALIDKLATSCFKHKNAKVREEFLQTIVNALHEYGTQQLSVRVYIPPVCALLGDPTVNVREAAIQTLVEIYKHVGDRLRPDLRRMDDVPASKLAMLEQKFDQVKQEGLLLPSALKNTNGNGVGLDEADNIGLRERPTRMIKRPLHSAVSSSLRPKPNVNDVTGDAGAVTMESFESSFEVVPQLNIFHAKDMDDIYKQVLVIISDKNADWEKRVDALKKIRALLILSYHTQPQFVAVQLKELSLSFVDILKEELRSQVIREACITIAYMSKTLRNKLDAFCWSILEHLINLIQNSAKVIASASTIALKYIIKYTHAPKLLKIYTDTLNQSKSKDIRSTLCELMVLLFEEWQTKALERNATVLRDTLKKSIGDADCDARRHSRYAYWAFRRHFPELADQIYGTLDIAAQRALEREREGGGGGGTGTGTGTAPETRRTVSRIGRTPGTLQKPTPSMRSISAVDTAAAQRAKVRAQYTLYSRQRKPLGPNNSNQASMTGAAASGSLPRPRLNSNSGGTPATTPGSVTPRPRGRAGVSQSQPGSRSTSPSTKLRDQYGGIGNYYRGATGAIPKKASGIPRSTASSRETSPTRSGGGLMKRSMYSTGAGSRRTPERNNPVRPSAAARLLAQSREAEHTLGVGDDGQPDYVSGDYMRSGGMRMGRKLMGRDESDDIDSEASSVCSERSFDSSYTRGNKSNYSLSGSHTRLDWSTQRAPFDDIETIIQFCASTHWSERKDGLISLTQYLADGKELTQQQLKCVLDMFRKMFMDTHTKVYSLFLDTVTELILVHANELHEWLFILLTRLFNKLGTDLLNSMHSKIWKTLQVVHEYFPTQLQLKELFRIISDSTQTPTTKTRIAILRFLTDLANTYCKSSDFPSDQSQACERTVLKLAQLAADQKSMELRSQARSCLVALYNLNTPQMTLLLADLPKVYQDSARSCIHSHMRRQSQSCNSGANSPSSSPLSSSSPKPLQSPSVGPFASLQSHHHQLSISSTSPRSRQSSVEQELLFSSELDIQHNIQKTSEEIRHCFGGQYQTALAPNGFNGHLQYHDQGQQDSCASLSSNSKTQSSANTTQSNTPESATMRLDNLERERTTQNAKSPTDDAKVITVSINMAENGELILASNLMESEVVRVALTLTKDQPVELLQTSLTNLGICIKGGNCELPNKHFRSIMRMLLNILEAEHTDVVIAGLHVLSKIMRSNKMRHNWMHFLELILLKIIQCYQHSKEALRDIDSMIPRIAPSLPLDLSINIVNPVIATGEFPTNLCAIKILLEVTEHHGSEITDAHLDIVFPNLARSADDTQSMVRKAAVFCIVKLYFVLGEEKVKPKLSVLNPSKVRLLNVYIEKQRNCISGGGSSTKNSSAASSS
Description: proximity ligation; in situ PLA (Duolink kit) on fixed Drosophila primary spermatocytes, late anaphase to telophase I; one partner detected by its own antibody, the GFP-tagged partner by anti-GFP; signal means within 40 nm.

These are yes or no findings as the source states them, for the method shown. In cells and extracts the contact can be indirect.

With Pav, Drosophila kinesin-6 protein, the binding entry is given as “no binding”.
